The target of test [1] is T1, Ala17 PABPN1-TurboID (UniProt Q8CCS6).
T1 sequence: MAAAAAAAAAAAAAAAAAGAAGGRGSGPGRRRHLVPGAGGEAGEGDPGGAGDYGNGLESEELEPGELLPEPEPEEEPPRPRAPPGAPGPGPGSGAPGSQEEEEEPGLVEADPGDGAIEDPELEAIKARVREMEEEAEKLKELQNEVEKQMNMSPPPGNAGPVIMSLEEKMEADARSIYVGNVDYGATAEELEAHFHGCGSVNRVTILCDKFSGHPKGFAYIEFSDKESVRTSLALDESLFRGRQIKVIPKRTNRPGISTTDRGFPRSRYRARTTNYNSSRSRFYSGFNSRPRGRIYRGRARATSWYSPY
In words: proximity labelling; PABPN1-TurboID in C2C12 myotubes (doxycycline ~48 h, 1 mM biotin 2 h); lysate in RIPA with 1% SDS; capture on streptavidin agarose beads overnight at 4 C; eluates analysed by immunoblot with specific antibodies.

Protein sequences, listed by entry. Tags and fused reporters are not part of them.
UniProt Q921F2: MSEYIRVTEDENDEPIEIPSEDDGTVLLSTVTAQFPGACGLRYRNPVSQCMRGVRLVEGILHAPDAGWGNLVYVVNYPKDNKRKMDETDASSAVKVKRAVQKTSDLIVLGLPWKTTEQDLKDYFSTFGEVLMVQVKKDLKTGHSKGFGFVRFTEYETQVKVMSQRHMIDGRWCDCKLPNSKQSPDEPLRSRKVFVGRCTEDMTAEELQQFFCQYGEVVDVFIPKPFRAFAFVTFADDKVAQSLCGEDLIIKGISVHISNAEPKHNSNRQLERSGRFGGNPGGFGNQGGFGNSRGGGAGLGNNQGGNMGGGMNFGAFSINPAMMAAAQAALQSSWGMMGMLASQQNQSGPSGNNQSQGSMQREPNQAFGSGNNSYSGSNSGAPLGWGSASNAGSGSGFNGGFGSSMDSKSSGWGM
UniProt P29341: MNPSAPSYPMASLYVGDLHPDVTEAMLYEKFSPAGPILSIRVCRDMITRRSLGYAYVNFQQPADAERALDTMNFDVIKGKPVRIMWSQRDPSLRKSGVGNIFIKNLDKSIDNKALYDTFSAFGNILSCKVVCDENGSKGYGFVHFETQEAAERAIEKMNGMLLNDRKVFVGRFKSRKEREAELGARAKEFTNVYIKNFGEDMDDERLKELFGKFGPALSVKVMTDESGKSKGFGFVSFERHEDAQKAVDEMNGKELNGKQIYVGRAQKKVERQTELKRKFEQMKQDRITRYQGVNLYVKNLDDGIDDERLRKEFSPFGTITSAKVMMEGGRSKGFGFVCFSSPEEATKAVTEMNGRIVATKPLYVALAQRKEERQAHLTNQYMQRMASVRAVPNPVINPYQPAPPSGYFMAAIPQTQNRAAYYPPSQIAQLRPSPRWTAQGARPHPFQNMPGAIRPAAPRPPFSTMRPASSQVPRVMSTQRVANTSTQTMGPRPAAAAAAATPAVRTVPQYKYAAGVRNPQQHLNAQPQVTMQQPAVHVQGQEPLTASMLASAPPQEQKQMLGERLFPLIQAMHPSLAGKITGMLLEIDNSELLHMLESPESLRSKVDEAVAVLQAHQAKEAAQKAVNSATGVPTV

Test [2] has as its target T2, Ala10 PABPN1-TurboID (UniProt Q8CCS6).
T2 sequence: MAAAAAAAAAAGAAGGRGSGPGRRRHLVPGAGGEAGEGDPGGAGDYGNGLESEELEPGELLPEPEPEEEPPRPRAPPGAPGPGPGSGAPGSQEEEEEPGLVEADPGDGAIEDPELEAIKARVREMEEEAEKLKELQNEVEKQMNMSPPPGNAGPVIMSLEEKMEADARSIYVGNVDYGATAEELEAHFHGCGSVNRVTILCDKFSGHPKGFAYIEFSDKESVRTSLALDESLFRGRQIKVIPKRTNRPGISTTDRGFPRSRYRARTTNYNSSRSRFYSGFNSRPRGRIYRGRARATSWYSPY
The description is as above.

Test [3] addresses T1, Ala17 PABPN1-TurboID. As to the kind of experiment: proximity labelling; PABPN1-TurboID at near-native levels in C2C12 myotubes (doxycycline, biotin); streptavidin capture; label-free quantitative nanoLC-MS/MS against the Mus musculus database; three experiments; strict hits in at least two of three replicates and not in wild type controls.
Test [4] has as its target T2, Ala10 PABPN1-TurboID. Described as above.
Test [5] concerns the target T1, Ala17 PABPN1-TurboID. As to the kind of experiment: proximity labelling; PABPN1-TurboID in C2C12 myotubes (doxycycline ~48 h, 1 mM biotin 2 h); lysate in RIPA with 1% SDS; capture on streptavidin agarose beads overnight at 4 C; eluates analysed by immunoblot with specific antibodies. The source holds these as a separate data set.
The target in test [6] is T2, Ala10 PABPN1-TurboID. Described as above. This is another data set of the same source.

No constants are given. Whether binding was seen depends on the method and setting. Binding seen in cells or lysates may run through a third protein. These calls come from enrichment with a bait or labelling near it, and not all partners need be listed.

On to TDP-43 (from UniProt Q921F2 1-414), for which the binding result in the test with Ala17 PABPN1-TurboID [1], with Ala10 PABPN1-TurboID [2], with Ala17 PABPN1-TurboID [3] and with Ala10 PABPN1-TurboID [4] was “binds” in each case.
For PABPC1 (from UniProt P29341 1-636), the binding entry in the test with Ala17 PABPN1-TurboID [1], with Ala10 PABPN1-TurboID [2], with Ala17 PABPN1-TurboID [3] and in the test with Ala10 PABPN1-TurboID [4] was “binds” each time.

B1: THOC5 (protein, UniProt Q8BKT7 1-683)
chain: MSSESSKKRKPKVIRSDGTPTEGKRNRSDTEQEGKYYSEEAEVDLRDPGRDYELYKYTCQELQRLMAEIQDLKSKGSKDVAIEIEERRIQSCVHFMTLKKLNRLAHIRLKKGRDQTHEAKQKVDAYHLQLQNLLYEVMHLQKEITKCLEFKSKHEEIDLVSLEEFYSEAPPSISKAEITMGDPHQQTLARLDWELEQRKRLAEKYRECLSNKEKILKEIEVKRDYLSSLQPRLNSIMQASLPVQEYLFMPFDQAHKQYETARHLPPPLYVLFVQATAYGQACDKTLSVAIEGSVDEAKALFKPPEDSQDDESDSDAEEEQTTKRRRPTLGVQLDDKRKEMLKRHPLSVLLDLKCKDNSVLHLTFYYLMNLNIMTVKAKVTTAVELITPISAGDLLSPDSVLSCLYPGDHGKKTPNPANQYQFDKVGILTLRDYVLELGHPYLWVQKLGGLHFPKEQPQQTVMPDHSQSASHMETTMKLLKTRVQSRLALHKQFASLEHGIVPVTSDCQDLFPAKVVSRLVKWVIITHEDYMELHFTKDIVEAGLAGDTNLYYLALIERGTAKLQAAVVLNPGYSSIPPVFRLCLNWKGEKTNSNDDNIRAMESEVNVCYKELCGPRPSHQLLTNQLQRLCVLLDVYLETESHDDSFEGPKEFPQEKMCLRLFRGPSRMKPFKYNHPQGFFSHR
As to B1, the binding entry with Ala17 PABPN1-TurboID [5] and with Ala10 PABPN1-TurboID [6] was “binds” in each case.

B2: RBM27 (protein, UniProt Q5SFM8 1-1060)
chain: MLIEDVDALKSWLAKLLEPICDADPSALANYVVALVKKDKPEKELKAFCADQLDVFLQKETSGFVDKLFESLYTKNYLPPLEPVKPEPKPLVQEKEEIKEEVFQEPAEEERDTRKKKYPSPQKSRSESSERRTREKKREDGKWRDYERYYERNELYREKYDWRRGRSKSRSKSRGLSRSRSRSRGRSKDRDPNRNVEHRERSKFKSERNDLESSYVPVSAPPPSSSEQYSSGAQSIPSTVTVIAPAHHSENTTESWSNYYNNHSSSNSFGRNPPPKRRCRDYDERGFCVLGDLCQFDHGNDPLVVDEVALPSMIPFPPPPPGLPPPPPPGMLMPPMPGPGPGPGPGPGPGPGPGPGPGHSMRLPVPQGHGQPPPSVVLPIPRPPISQSSLINSRDQPGTSAVPNLAPVGARLPPPLPQNLLYTVSERQPMYSREHGAAASERLQLGTPPPLLAARLVPPRNLMGSSIGYHTSVSSPTPLVPDTYEPDGYNPEAPSITSSGRSQYRQFFSRAQTQRPNLIGLTSGDMDANPRAANIVIQTEPPVPVSVNSNVTRVVLEPESRKRAISGLEGPLTKKPWLGKQGNNNQSKPGFLRKNHYTNTKLEVKKIPQELNNITKLNEHFSKFGTIVNIQVAFKGDPEAALIQYLTNEEARKAISSTEAVLNNRFIRVLWHRENNEQPALQSSAQILLQQQHTLSHLSQQHHSLPQHLHPQQVMVTQSSPSSVHGGIQKMMGKPQTSGAYVLNKVPVKHRLGHASTNQSDTSHLLNQTGGSSGEDCPVFSTPGHPKTIYSSSNLKAPSKLCSGSKSHDVQEVLKKKQEAMKLQQDMRKKKQEMLEKQIECQKMLISKLEKNKNMKPEERANIMKTLKELGEKISQLKDELKTSSTVSTPSKVKTKTEAQKELLDTELDLHKRLSSGEDTTELRKKLSQLQVEAARLGILPVGRGKTISSQGRGRGRGRGRGRGSLNHMVVDHRPKALPGGGFIEEEKDELLQHFSATNQASKFKDRRLQISWHKPKVPSISTETEEEEVKEEETETSDLFLHDDDDEDEDEYESRSWRR
On to B2, for which the binding entry with Ala17 PABPN1-TurboID [3] and with Ala10 PABPN1-TurboID [4] was “binds” in each case.

B3: CPSF6 (protein, UniProt Q6NVF9 1-551)
chain: MADGVDHIDIYADVGEEFNQEAEYGGHDQIDLYDDVISPSANNGDAPEDRDYMDTLPPTVGDDVGKGAAPNVVYTYTGKRIALYIGNLTWWTTDEDLTEAVHSLGVNDILEIKFFENRANGQSKGFALVGVGSEASSKKLMDLLPKRELHGQSPVVTPCNKQFLSQFEMQSRKTTQSGQMSGEGKAGPPGGGSRAAFPQGGRGRGRFPGAVPGGDRFPGPAGPGGPPPPFPAGQTPPRPPLGPPGPPGPPGPPPPGQVLPPPLAGPPNRGDRPPPPVLFPGQPFGQPPLGPLPPGPPPPVPGYGPPPGPPPPQQGPPPPPGPFPPRPPGPLGPPLTLAPPPHLPGPPPGAPPPAPHVNPAFFPPPTNSGMPTSDSRGPPPTDPYGRPPPYDRGDYGPPGREMDTARTPLSEAEFEEIMNRNRAISSSAISRAVSDASAGDYGSAIETLVTAISLIKQSKVSADDRCKVLISSLQDCLHGIESKSYGSGSRRERSRERDHSRSREKSRRHKSRSRDRHDDYYRERSRERERHRDRDRDRDRERDREREYRHR
B3: the binding result with Ala17 PABPN1-TurboID [3] and in the test with Ala10 PABPN1-TurboID [4] was “binds” throughout.

(Values after publication PMC12858073.)
